Values quoted from earlier work in patent US7098310B1, “Heterodimers of retinoid X receptors (RXRS) and other steroid hormone receptors” (Ligand Pharmaceuticals, priority 1991, dated 2006).
At least one compound was matched to its structure with a doubt left.

System: GH gene
Settings: Bedo et al. (1989); cited from earlier work

CC1=C(/C=C/C(C)=C/C=C/C(C)=C/C(=O)O)C(C)(C)CCC1 [RA, retinoic acid]
RA concentration for optimal induction of GH gene in the presence of T3: 10^−9 M | increase of effectivity of RA by presence of T3: ~3 orders of magnitude
